Laboratory results: the supplement of paper PMC11006884
The targets with a hit were mostly taken out for another list; the other results follow. The data scatter; read single values as rough. The list shows a part of the results, in another mix than the full data.

compound: COC(=O)/C=C/c1ccccc1 [methyl cinnamate]; experiment: log2 ratio of iodoacetamide-alkyne labeling of the cysteine site, DMSO over compound (competition); higher = stronger covalent engagement of the cysteine by the compound, active = 1 or more; conditions: 500 µM; treatment time 1 h; system: HEK293T cell lysate
Method in brief: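 The log2 competition ratio per cysteine is defined as mean reporter intensity in control channels over mean reporter intensity in compound channels. Lysate from HEK293T cells (2 mg/mL) received electrophile (500 µM) or vehicle for 1 h at ambient temperature, followed by iodoacetamide alkyne for 1 h. Samples were clicked to sCIP-TMT reagents, pooled, trypsin-digested overnight at 37 °C, streptavidin-enriched, acid-eluted and run on Orbitrap Eclipse LC-MS/MS with FAIMS, with quantification in FragPipe. Three replicates with duplicate channels were used, and any cysteine quantified in only one replicate was excluded.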

Target | log2 ratio of iodoacetamide-alkyne labeling
COASY C357 (UniProt Q13057) | inactive: -0.00705
SCRN3 C102 (UniProt Q0VDG4) | inactive: 0.463
NFX1 C295 (UniProt Q12986) | inactive: 0.392
STX5 C68 (UniProt Q13190) | inactive: 0.223
GALNT2 C229 (UniProt Q10471) | inactive: -0.164
UniProt Q13247_C121 | inactive: 0.166
UniProt Q05519_C455 | inactive: 0.255
PTPN11 C104 (UniProt Q06124) | inactive: 0.176
CHD3 C1464 (UniProt Q12873) | inactive: 0.189
PSMD2 C779 (UniProt Q13200) | inactive: 0.0793
TCOF1 C38 (UniProt Q13428) | inactive: -0.117
EP300 C1163 (UniProt Q09472) | inactive: 0.124
KLC1 C456 (UniProt Q07866) | inactive: 0.42
TLE1 C89 (UniProt Q04724) | inactive: -0.00836
KLC1 C114 (UniProt Q07866) | inactive: 0.179
PPAT C105 (UniProt Q06203) | inactive: 0.216
ILF3 C203 (UniProt Q12906) | inactive: 0.107
TCOF1 C1298 (UniProt Q13428) | inactive: 0.213
UniProt Q08117_C89 | inactive: 0.29

Target | log2 ratio of iodoacetamide-alkyne labeling
GLO1 C139 (UniProt Q04760) | inactive: 0.0349
AP1B1 C123 (UniProt Q10567) | inactive: 0.0716
ATM C755 (UniProt Q13315) | inactive: 0.0955
UniProt Q08170_C115 | inactive: 0.145
UniProt Q13242_C138 | inactive: -0.121
EIF4G1 C1265 (UniProt Q04637) | inactive: 0.0374
ATM C12 (UniProt Q13315) | inactive: 0.0264
DST C7524 (UniProt Q03001) | inactive: 0.31
NCBP1 C261 (UniProt Q09161) | inactive: -0.108
TARBP1 C483 (UniProt Q13395) | inactive: -0.0748
PRDX1 C71 (UniProt Q06830) | inactive: 0.192
MTA1 C68 (UniProt Q13330) | inactive: 0.104
DHX9 C1029 (UniProt Q08211) | inactive: 0.0938
UniProt Q12824_C167 | inactive: -0.159
GTF3C1 C544 (UniProt Q12789) | inactive: 0.153
TRAF2 C112 (UniProt Q12933) | inactive: 0.166
GLO1 C61 (UniProt Q04760) | inactive: 0.11
AKAP12 C1139 (UniProt Q02952) | inactive: 0.135
CHAF1A C465 (UniProt Q13111) | inactive: 0.211

Some of the entries so far, with each value named.
PRDX1 C71 (UniProt Q06830)
  log2 ratio of iodoacetamide-alkyne labeling: inactive: 0.192
MTA1 C68 (UniProt Q13330)
  log2 ratio of iodoacetamide-alkyne labeling: inactive: 0.104
